{
  "source": "the supplement of paper PMC8728848",
  "experiment_in_all_cases": "glycan array binding signal (z-score within array); higher = stronger binding",
  "conditions_in_all_cases": "glycan notation: IUPAC condensed, linker removed",
  "key": {"[1]": {"molecular_target": "Neu5Ac(a2-3)Gal(b1-4)GlcNAc(b1-2)[Neu5Ac(a2-3)Gal(b1-4)GlcNAc(b1-4)]Man(a1-3)[GlcNAc(b1-4)][Neu5Ac(a2-3)Gal(b1-4)GlcNAc(b1-2)[Neu5Ac(a2-3)Gal(b1-4)GlcNAc(b1-6)]Man(a1-6)]Man(b1-4)GlcNAc(b1-4)GlcNAc", "in_short": "(§1)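 The Consortium for Functional Glycomics database supplied 3228 glycan arrays, of which those lacking an available protein sequence were dropped. The binding signal, a within-array Z-score, was averaged across arrays of the same protein sequence and across linkers. Negative scores can be read as non-binding.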"}, "[2]": {"molecular_target": "Neu5Ac(a2-3)Gal(b1-4)GlcNAc(b1-2)[Neu5Ac(a2-3)Gal(b1-4)GlcNAc(b1-4)]Man(a1-3)[GlcNAc(b1-4)][Neu5Ac(a2-3)Gal(b1-4)GlcNAc(b1-4)Man(a1-6)]Man(b1-4)GlcNAc(b1-4)GlcNAc", "in_short": "as §1"}, "[3]": {"molecular_target": "Neu5Ac(a2-3)Gal(b1-4)GlcNAc(b1-2)[Neu5Ac(a2-3)Gal(b1-4)GlcNAc(b1-6)]Man(a1-6)[Neu5Ac(a2-3)Gal(b1-4)GlcNAc(b1-2)Man(a1-3)][GlcNAc(b1-4)]Man(b1-4)GlcNAc(b1-4)GlcNAc", "in_short": "as §1"}, "[4]": {"molecular_target": "Neu5Ac(a2-3)Gal(b1-4)GlcNAc(b1-3)Gal", "in_short": "as §1"}, "[5]": {"molecular_target": "Neu5Ac(a2-3)Gal(b1-4)GlcNAc(b1-3)Gal(b1-3)GlcNAc", "in_short": "as §1"}, "[6]": {"molecular_target": "Neu5Ac(a2-3)Gal(b1-4)GlcNAc(b1-3)Gal(b1-4)GlcNAc", "in_short": "as §1"}, "[7]": {"molecular_target": "Neu5Ac(a2-3)Gal(b1-4)GlcNAc(b1-3)Gal(b1-4)GlcNAc(b1-2)Man(a1-3)[Neu5Ac(a2-3)Gal(b1-4)GlcNAc(b1-3)Gal(b1-4)GlcNAc(b1-2)Man(a1-6)]Man(b1-4)GlcNAc(b1-4)GlcNAc", "in_short": "as §1"}, "[8]": {"molecular_target": "Neu5Ac(a2-3)Gal(b1-4)GlcNAc(b1-3)Gal(b1-4)GlcNAc(b1-3)Gal(b1-4)GlcNAc", "in_short": "as §1"}, "[9]": {"molecular_target": "Neu5Ac(a2-3)Gal(b1-4)GlcNAc(b1-3)Gal(b1-4)GlcNAc(b1-3)Gal(b1-4)GlcNAc(b1-2)Man(a1-3)[Neu5Ac(a2-3)Gal(b1-4)GlcNAc(b1-3)Gal(b1-4)GlcNAc(b1-3)Gal(b1-4)GlcNAc(b1-2)Man(a1-6)]GalNAc", "in_short": "as §1"}, "[10]": {"molecular_target": "Neu5Ac(a2-3)Gal(b1-4)GlcNAc(b1-3)Gal(b1-4)GlcNAc(b1-3)GalNAc", "in_short": "as §1"}, "[11]": {"molecular_target": "Neu5Ac(a2-3)Gal(b1-4)GlcNAc(b1-3)Gal(b1-4)GlcNAc(b1-3)[Neu5Ac(a2-3)Gal(b1-4)GlcNAc(b1-3)Gal(b1-4)GlcNAc(b1-6)]GalNAc", "in_short": "as §1"}, "[12]": {"molecular_target": "Neu5Ac(a2-3)Gal(b1-4)GlcNAc(b1-3)Gal(b1-4)GlcNAc(b1-6)[Gal(b1-3)]GalNAc", "in_short": "as §1"}, "[13]": {"molecular_target": "Neu5Ac(a2-3)Gal(b1-4)GlcNAc(b1-3)Gal(b1-4)[Fuc(a1-3)]GlcNAc", "in_short": "as §1"}, "[14]": {"molecular_target": "Neu5Ac(a2-3)Gal(b1-4)GlcNAc(b1-3)GalNAc", "in_short": "as §1"}, "[15]": {"molecular_target": "Neu5Ac(a2-3)Gal(b1-4)GlcNAc(b1-3)[Neu5Ac(a2-3)Gal(b1-4)GlcNAc(b1-6)]GalNAc", "in_short": "as §1"}, "[16]": {"molecular_target": "Neu5Ac(a2-3)Gal(b1-4)GlcNAc(b1-6)GalNAc", "in_short": "as §1"}, "[17]": {"molecular_target": "Neu5Ac(a2-3)Gal(b1-4)GlcNAc(b1-6)[Gal(b1-3)]GalNAc", "in_short": "as §1"}, "[18]": {"molecular_target": "Neu5Ac(a2-3)Gal(b1-4)GlcNAc(b1-6)[Neu5Ac(a2-3)Gal(b1-3)]GalNAc", "in_short": "as §1"}, "[19]": {"molecular_target": "Neu5Ac(a2-3)Gal(b1-4)GlcNAc6S", "in_short": "as §1"}, "[20]": {"molecular_target": "Neu5Ac(a2-3)Gal(b1-4)[Fuc(a1-3)]GlcNAc", "in_short": "as §1"}, "[21]": {"molecular_target": "Neu5Ac(a2-3)Gal(b1-4)[Fuc(a1-3)]GlcNAc(b1-2)Man", "in_short": "as §1"}, "[22]": {"molecular_target": "Neu5Ac(a2-3)Gal(b1-4)[Fuc(a1-3)]GlcNAc(b1-3)Gal", "in_short": "as §1"}, "[23]": {"molecular_target": "Neu5Ac(a2-3)Gal(b1-4)[Fuc(a1-3)]GlcNAc(b1-3)Gal(b1-4)GlcNAc", "in_short": "as §1"}, "[24]": {"molecular_target": "Neu5Ac(a2-3)Gal(b1-4)[Fuc(a1-3)]GlcNAc(b1-3)Gal(b1-4)[Fuc(a1-3)]GlcNAc(b1-3)Gal(b1-4)[Fuc(a1-3)]GlcNAc", "in_short": "as §1"}, "[25]": {"molecular_target": "Neu5Ac(a2-3)Gal(b1-4)[Fuc(a1-3)]GlcNAc(b1-3)GalNAc", "in_short": "as §1"}, "[26]": {"molecular_target": "Neu5Ac(a2-3)Gal(b1-4)[Fuc(a1-3)]GlcNAc(b1-6)[Gal(b1-3)]GalNAc", "in_short": "as §1"}, "[27]": {"molecular_target": "Neu5Ac(a2-3)Gal(b1-4)[Fuc(a1-3)]GlcNAc(b1-6)[Neu5Ac(a2-3)Gal(b1-3)]GalNAc", "in_short": "as §1"}, "[28]": {"molecular_target": "Neu5Ac(a2-3)Gal(b1-4)[Fuc(a1-3)]GlcNAc6S", "in_short": "as §1"}, "[29]": {"molecular_target": "Neu5Ac(a2-3)Gal6S(b1-4)GlcNAc", "in_short": "as §1"}, "[30]": {"molecular_target": "Neu5Ac(a2-3)Gal6S(b1-4)[Fuc(a1-3)]GlcNAc", "in_short": "as §1"}, "Neu5Ac(a2-3)GalNAc": {"molecular_target": "Neu5Ac(a2-3)GalNAc", "in_short": "as §1"}, "[31]": {"molecular_target": "Neu5Ac(a2-3)GalNAc(b1-4)GlcNAc", "in_short": "as §1"}, "[32]": {"molecular_target": "Neu5Ac(a2-3)[GalNAc(b1-4)]Gal(b1-4)Glc", "in_short": "as §1"}, "[33]": {"molecular_target": "Neu5Ac(a2-3)[GalNAc(b1-4)]Gal(b1-4)GlcNAc", "in_short": "as §1"}, "[34]": {"molecular_target": "Neu5Ac(a2-3)[GalNAc(b1-4)]Gal(b1-4)GlcNAc(b1-3)GalNAc", "in_short": "as §1"}, "[35]": {"molecular_target": "Neu5Ac(a2-3)[Neu5Ac(a2-6)]GalNAc", "in_short": "as §1"}, "Neu5Ac(a2-6)Gal": {"molecular_target": "Neu5Ac(a2-6)Gal", "in_short": "as §1"}},
  "note": "This is one part of the list.",
  "data": [
    {"binder": "EUL D1A (Oryza sativa) (protein) MFGFGHHHNQAPAAPSDPNQIFKIFCRANENYCLTVRDSAVVLAPVNPKDEHQHWFKDMRFSTKVKDGEGMPAFALVNKATGLAVKHSLGQSHPVKLVPFNPEYEDASVLWTESKDVGKGFRCIRMVNNTRLNLDAFHGDKDHGGVRDGTTVVLWEWCKGDNQSWKILPWGPEAHSSSPGAATACTIGGVPVHTVRVFSAAGEDYCLTVRNGTACLAPKNPRDDYQHWIKDMRHSNKIRDEEGYPAFALVNKVTGEAIKHSTGQGHPVKLVPYNPEYQDESVLWTESKDVGKGFRCIRMVNNIYLNFDAFHGDKDHGGIHDGTEIVLWKWCEGDNQRWKILPWILEQKLISEEDLNSAVDHHHHHH", "values": [
      {"measurement": "glycan array binding signal (z-score)", "setting": "[1]", "value": 0.778},
      {"measurement": "glycan array binding signal (z-score)", "setting": "[2]", "value": -1.49},
      {"measurement": "glycan array binding signal (z-score)", "setting": "[3]", "value": -0.806},
      {"measurement": "glycan array binding signal (z-score)", "setting": "[4]", "value": 0.074},
      {"measurement": "glycan array binding signal (z-score)", "setting": "[5]", "value": -0.328},
      {"measurement": "glycan array binding signal (z-score)", "setting": "[6]", "value": -0.613},
      {"measurement": "glycan array binding signal (z-score)", "setting": "[7]", "value": -1.23},
      {"measurement": "glycan array binding signal (z-score)", "setting": "[8]", "value": -0.439},
      {"measurement": "glycan array binding signal (z-score)", "setting": "[9]", "value": 0.688},
      {"measurement": "glycan array binding signal (z-score)", "setting": "[10]", "value": -0.895},
      {"measurement": "glycan array binding signal (z-score)", "setting": "[11]", "value": 0.916},
      {"measurement": "glycan array binding signal (z-score)", "setting": "[12]", "value": -0.261},
      {"measurement": "glycan array binding signal (z-score)", "setting": "[13]", "value": -0.691},
      {"measurement": "glycan array binding signal (z-score)", "setting": "[14]", "value": -1.32},
      {"measurement": "glycan array binding signal (z-score)", "setting": "[15]", "value": -1.07},
      {"measurement": "glycan array binding signal (z-score)", "setting": "[16]", "value": -0.547},
      {"measurement": "glycan array binding signal (z-score)", "setting": "[17]", "value": -0.521},
      {"measurement": "glycan array binding signal (z-score)", "setting": "[18]", "value": 2.69},
      {"measurement": "glycan array binding signal (z-score)", "setting": "[19]", "value": -0.182},
      {"measurement": "glycan array binding signal (z-score)", "setting": "[20]", "value": -0.398},
      {"measurement": "glycan array binding signal (z-score)", "setting": "[21]", "value": -1.12},
      {"measurement": "glycan array binding signal (z-score)", "setting": "[22]", "value": -0.856},
      {"measurement": "glycan array binding signal (z-score)", "setting": "[23]", "value": -1.22},
      {"measurement": "glycan array binding signal (z-score)", "setting": "[24]", "value": -0.352},
      {"measurement": "glycan array binding signal (z-score)", "setting": "[25]", "value": 1.45},
      {"measurement": "glycan array binding signal (z-score)", "setting": "[26]", "value": 1.33},
      {"measurement": "glycan array binding signal (z-score)", "setting": "[27]", "value": 0.616},
      {"measurement": "glycan array binding signal (z-score)", "setting": "[28]", "value": -1.43},
      {"measurement": "glycan array binding signal (z-score)", "setting": "[29]", "value": -0.975},
      {"measurement": "glycan array binding signal (z-score)", "setting": "[30]", "value": -0.714},
      {"measurement": "glycan array binding signal (z-score)", "setting": "Neu5Ac(a2-3)GalNAc", "value": -1.28},
      {"measurement": "glycan array binding signal (z-score)", "setting": "[31]", "value": -0.439},
      {"measurement": "glycan array binding signal (z-score)", "setting": "[32]", "value": -0.137},
      {"measurement": "glycan array binding signal (z-score)", "setting": "[33]", "value": -0.358},
      {"measurement": "glycan array binding signal (z-score)", "setting": "[34]", "value": -0.583},
      {"measurement": "glycan array binding signal (z-score)", "setting": "[35]", "value": 0.339},
      {"measurement": "glycan array binding signal (z-score)", "setting": "Neu5Ac(a2-6)Gal", "value": -0.38}
    ]}
  ]
}
